Data as given in PubChem BioAssay AID652272 (Drosophila RNAi Screening Center, 2013).

- Screen: 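Finding fly genes that regulate Hedgehog signal transduction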 (primary screen)
- System: Drosophila clone 8 (Cl8) cells
- Reagents: long dsRNA against Drosophila genes
- Read-out: 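Plate reader light from a firefly reporter under a ptc promoter fragment that responds to Hedgehog, with Renilla light as transfection reference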
- Direction: firefly Hh reporter signal: higher = more ptc reporter light; Renilla reference signal: higher = more Renilla control light
- Rule for the call: 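Called a hit if the two-replicate mean z-score lies below -2 or above +3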
- Meaning of the calls: active = hit: reporter lowered or raised; inactive = not a hit
In all, the deposit lists about 21,000 reagents; below is an unselected part of those with a known target gene and a result. Of all reagents, 503 (2.4%) were called active. 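Raw plate light values, not normalised; calls rest on replicate z-scores that were not deposited; hits include reporter decreases as well as increases.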 Unmarked entries are inactive. A plus sign joins genes that one reagent is predicted to hit. No sequences are given here. Not given: the amount of reagent, the time to read-out.

gene	amplicon	firefly Hh reporter signal, replicate 1	firefly Hh reporter signal, replicate 2	Renilla reference signal, replicate 1	Renilla reference signal, replicate 2
AstA-R1 (Allatostatin A receptor 1)	DRSC17278	4.80e5	2.83e5	21049	5816
AstA-R1 (Allatostatin A receptor 1)	DRSC17727	97045	3.17e5	2338	12145
CG11857	DRSC14411	4.38e5	74805	23953	2277
Ca-alpha1D (Ca[2+]-channel protein alpha[[1]] subunit D)	DRSC03284	78252	53874	4820	2650
Spt7	DRSC19997	1.11e5	1.05e5	2099	2683
CG3224	DRSC18295	74272	2.23e5	3138	9453
CG18278 + CG30059	DRSC05418	1.95e5	3.56e5	5963	15174
Ccdc58 + CG34116	DRSC10105	86323	99757	2896	2775
TwdlD (TweedleD)	DRSC14738	72130	82108	2080	2594
NK7.1	DRSC16755	68720	64378	3719	2848
CG15577	DRSC18065	95184	2.93e5	3891	10220
Elba1 (Early boundary activity 1)	DRSC00276	89264	44835	2475	4304
Dic3	DRSC06058	99668	66112	2432	5898
CG13501	DRSC04146	74592	83795	2065	6025
Gnf1 (Germ line transcription factor 1)	DRSC12351	78673	1.01e5	2896	2006
CG15408	DRSC00423	1.04e5	54322	2445	5200
Nprl2 (Nitrogen permease regulator-like 2)	DRSC20153	81579	67338	1683	1590
CG18636	DRSC02685	1.04e5	53232	2854	5275
CG14079	DRSC10083	64721	1.03e5	2243	2897
Cyp313a5 (Cytochrome P450 313a5)	DRSC16628	1.09e5	1.94e5	3136	4967
ebd1 (earthbound 1)	DRSC08565	1.47e5	65033	6097	2626
dpr12 (defective proboscis extension response 12)	DRSC04814	1.24e5	2.52e5	3548	10106
dpr12 (defective proboscis extension response 12)	DRSC04863	1.19e5	67350	2624	6611
dpr12 (defective proboscis extension response 12)	DRSC04892	79096	70472	1056	5906

Entries above whose gene name starts with N or n:
gene	amplicon	firefly Hh reporter signal, replicate 1	firefly Hh reporter signal, replicate 2	Renilla reference signal, replicate 1	Renilla reference signal, replicate 2
NK7.1	DRSC16755	68720	64378	3719	2848
Nprl2 (Nitrogen permease regulator-like 2)	DRSC20153	81579	67338	1683	1590
